{"source": "patent US12472260B2", "about": "“Antibody biopharmaceutical formulations including polymer excipients” (The Board of Trustees of the Leland Stanford Junior …, priority 2022, dated 2025)", "origin": "cited, not measured here", "settings": "reported values", "note": "Some of these results come from one statement about several compounds together.", "data": [{"substance": "Polysorbate 80 [PS80]", "values": [{"measurement": "CMC", "result": "below 1 mg/mL"}]}]}
